Drawing on PubChem BioAssay AID493014 (National Center for Advancing Translational Sciences (NCATS), 2011), this text covers AC50 for 64 molecules.

The structures appear in SMILES notation. Some of the results follow. Shown are side measurements of this screen, not its main read-out; they come without a call. The list favours compounds with an active or inconclusive main result. Potencies come from curve fits of mixed quality, noted in brackets.

A short description of the experiment: qHTS Assay to Find Inhibitors of Chronic Active B-Cell Receptor Signaling. Particulars: ABC-DLBCL IkBa-CBG/CBR reporter, luminescence ratio (green luciferase fused to IkBa over red control in TMD8 lymphoma cells), 4 h. The gist of the method: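 Cell line TMD8 (human ABC DLBCL), stably expressing tet-inducible CBG68-IkBa fusion and CBR; IMDM/0.5% FBS; cpd up to 46 uM; dox induction, 4 h, 37C/5% CO2; dual luminescence; green/red ratio; MG132 control.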
In general terms: In qHTS, concentration-response curves come from the screen itself.

[1] abbreviates: measured here: CBR red luminescence, cell number.
The mark [2] stands for this setting: measured here: IkBa-CBG green luminescence.

One may read the AC50 as the midpoint of the concentration-response curve, whichever way the signal moves. `O=C1CSC(=NC(=O)c2ccccc2)N1`: the AC50 under setting [1] is 29.1 µM [falling, single point].

Regarding `O=C(CSc1n[nH]c(-c2ccccc2)n1)Nc1ncccn1`, the AC50 under setting [1] was 10 µM [falling, partial curve]. On to `N#Cc1nc(-c2cccs2)oc1N1CCN(c2ccccc2)CC1`, for which the AC50 under setting [1] was 4.11 µM [rising, full curve]. For the molecule `N=C(N)N=Nc1c(O)[nH]c2ccc(Br)cc12`, the concentration at half-maximal activity (AC50) under setting [1] is 11.2 µM [falling, partial curve, poor fit]. Same read-out and setting: the result for `CCc1ccc(-c2cc(C(=O)NCc3ccccn3)c3ccccc3n2)cc1` reads 0.731 µM [rising, full curve, poor fit].

Turning to `CCCCCSc1nc2c(c(=O)[nH]c(=O)n2C)n1C`, the AC50 under setting [1] was 29.1 µM [rising, partial curve, poor fit].

As to `O=C1CNC(=S)N1CCc1ccccc1Cl`, under setting [1], the AC50 was 35.5 µM [rising, single point].

On to `Cc1cccc(OCC(O)Cn2c(=N)n(CCN3CCCCC3)c3ccccc32)c1` (configuration not stated), for which the AC50 under setting [1] is 17.8 µM [falling, single point]. With `COC(=O)CCC(NC(=O)c1cc(-c2ccc3c(c2)OCCO3)oc1C)C(=O)OC` (configuration not stated), the AC50 under setting [1] was 10 µM [falling, partial curve, poor fit]. Take `COc1ccc(/C=N/NC(=O)c2[nH]c3ccc(Br)cc3c2-c2ccccc2)c(C(=O)O)c1OC`: the AC50 reads like this: under setting [1], 11.2 µM [rising, partial curve]; under setting [2], 3.16 µM [falling, partial curve, poor fit].

Regarding `Cc1[nH]nc2c1C(c1ccc(-c3ccccc3C#N)o1)C(C#N)=C(N)O2` (configuration not stated), under setting [2], the AC50 was 22.4 µM [falling, partial curve, poor fit].

Regarding `O=C(CSc1nnnn1Cc1ccccc1)NCC(=O)c1ccccc1`, the AC50 under setting [1] was 29.1 µM [rising, single point]. On to `O=c1[nH]c(NCCO)nc2c1C1(CCCC1)Cc1ccccc1-2`, for which the AC50 under setting [1] is 8.91 µM [falling, single point]. With `Clc1ccc(SCc2cn3ccccc3n2)cc1`, the AC50 under setting [1] was 12.6 µM [falling, partial curve].

As to `CCN1/C(=C/c2ccc3ccccc3[n+]2CC)C=Cc2ccccc21`, the AC50 under setting [1] was 2.91 µM [rising, partial curve, poor fit]. Still for that read-out and setting: with `Cc1nn(C)c(C)c1/C=N/NC(=O)c1csc2ccccc12` the figure was 20.6 µM [falling, single point]; with `CC(C)Cn1c2c(c(=O)[nH]c1=O)C(C(F)(F)F)(C(F)(F)F)N=C(CCC1CCCCC1)N2`, 1.84 µM [rising, full curve]; with `COc1ccc(N(CC(=O)NCc2ccco2)S(=O)(=O)c2ccccc2)cc1`, 5.62 µM [rising, single point]. `O=C(CNc1cccc(C(F)(F)F)c1)N/N=C/c1cccc(Br)c1`: the AC50 under setting [1] was 5.8 µM [rising, partial curve, poor fit]. Consider `CCCSc1nnc(NC(=O)Nc2ccc(C)cc2)s1`, for which the AC50 under setting [1] was 3.55 µM [rising, full curve, poor fit]. In the case of `CN(C)/C=C/C(=O)c1cccc(Oc2ncccn2)c1`, under setting [1], the AC50 is 12.6 µM [rising, partial curve]. On to `Cc1ccc(C(=O)Nc2ccc3cn[nH]c3c2)cc1S(=O)(=O)N1CCCCC1`, for which the AC50 under setting [1] is 16.4 µM [falling, single point]. `CCCSc1nnc(C(C)C)n1N`: the concentration at half-maximal activity (AC50) under setting [1] is 4.61 µM [falling, single point]. For `NC(=O)CSc1nnc(Cc2csc(Nc3ccccc3)n2)n1Cc1ccccc1`, under setting [1], the AC50 was 11.2 µM [falling, single point].

For `COC(=O)c1cc(=O)n(Cc2ccco2)c(=Nc2ccc(F)cc2)s1`, the AC50 under setting [1] is 35.5 µM [falling, single point]. In the case of `CC(C)C(NC(=O)Nc1ccccc1)C(=O)Nc1cccc(S(=O)(=O)N(C)C)c1` (configuration not stated), the AC50 under setting [1] was 25.1 µM [falling, single point]. For the molecule `O=C(NCc1nnc(SCC(=O)N2CCC(Cc3ccccc3)CC2)o1)c1ccco1`, the AC50 under setting [1] is 11.2 µM [falling, partial curve]. Still for that read-out and setting: with `c1ccc(CSc2ccc(-c3ccc4c(c3)OCO4)nn2)cc1` the figure was 23.1 µM [rising, single point]; with `CCC(CO)Oc1cc(NCc2cccc(Cl)c2)c2ncn(C(C)C)c2c1` (configuration not stated), 29.1 µM [falling, single point].

As to `O=C(CCn1c(=O)sc2ccccc21)Nc1nc2ccccc2s1`, the AC50 under setting [1] is 10.3 µM [falling, partial curve]. `O=C(Nc1cc(Cl)cc(Cl)c1)c1ccc(F)c(S(=O)(=O)NC2CCCCC2)c1`: the AC50 under setting [1] is 1.41 µM [rising, partial curve, poor fit]. Consider `COc1ccc(CCNC(=O)CCSCc2ccccc2Cl)cc1OC`, for which the AC50 under setting [1] was 12.6 µM [rising, single point].

For the molecule `COc1cccc(-c2cc(C(=O)Nc3ccn(Cc4ccc(C)cc4)n3)no2)c1`, the AC50 under setting [1] is 1.78 µM [falling, full curve, poor fit]. `O=C(C1CCCCC1)N1CCC(c2nc3ccccc3[nH]2)CC1`: the AC50 under setting [1] was 0.00517 µM [rising, full curve, poor fit]. Consider `Nc1ccccc1Sc1ccccc1[N+](=O)[O-]`, for which the AC50 under setting [1] is 2.06 µM [rising, full curve, poor fit] and the AC50 under setting [2] was 23.1 µM [falling, partial curve, poor fit]. Take `O=C(NNC1=NS(=O)(=O)c2ccccc21)c1ccccc1`: the AC50 under setting [1] is 0.282 µM [falling, full curve, poor fit]. The same measure, in the same setting: the result for `O=C(/C=C/c1ccc(F)cc1)NC(=S)Nc1ccccc1O` reads 14.1 µM [falling, partial curve]. For the molecule `O=[N+]([O-])c1cccc(C(=S)N2CCN(c3ccc(F)cc3)CC2)c1`, the AC50 under setting [1] is 35.5 µM [rising, single point]. Same read-out and setting: the result for `COc1ccc(C)cc1S(=O)(=O)N(CC(=O)N1CCOCC1)Cc1ccccc1` reads 6.51 µM [rising, partial curve, poor fit]; that for `C=CCNC(=S)Nc1ccc(OC(F)F)c(Cl)c1`, 2.82 µM [rising, partial curve].

Take `COc1cccc(CNc2ncnc3ccc(-c4c(C)noc4C)cc23)c1`: the AC50 under setting [1] is 0.82 µM [falling, full curve, poor fit]. Turning to `COc1ccccc1NS(=O)(=O)c1cc(NC(=O)c2cnccn2)ccc1N1CCOCC1`, under setting [1], the AC50 is 0.1 µM [rising, full curve, poor fit]. With `Cc1ccc(Cl)cc1NC(=O)CC1NCCNC1=O` (configuration not stated), under setting [1], the AC50 was 18.4 µM [rising, single point]. Turning to `Cc1nc(C)c(-c2ccc(SCc3ccc(Cl)cc3)nn2)s1`, the AC50 under setting [1] is 28.2 µM [falling, single point].

Regarding `O=c1c2cn[nH]c2[nH]c(=S)n1-c1ccccc1F`, the AC50 under setting [1] was 6.31 µM [rising, partial curve, poor fit].

For `Cc1ccc(CS(=O)(=O)c2ncc(Cl)c(C(=O)Nc3nnc(C)s3)n2)cc1`, the AC50 under setting [1] was 35.5 µM [falling, single point].

As to `O=C(CSC1=NS(=O)(=O)c2cc(Cl)ccc2N1)c1ccc(Cl)cc1`, the AC50 under setting [1] is 0.651 µM [falling, full curve]. On the same count and under the same terms, the result for `O=C(CSc1nn(-c2ccc(Cl)cc2)c(=S)s1)N1CCN(C(=O)c2ccco2)CC1` reads 3.16 µM [falling, single point]. For `COc1ccc(-c2nc(C(=O)NCCCN3CCOCC3)cc3c2[nH]c2ccccc23)cc1OC`, the AC50 by setting is: under setting [1], 5.62 µM [falling, full curve]; under setting [2], 5.62 µM [rising, full curve].

Turning to `CCNC(=O)NC(=O)COC(=O)c1ccccc1SCC(=O)NC(=O)NCC`, the AC50 under setting [1] is 1.58 µM [falling, full curve]. Take `COc1ccc(OC)c(NC2=C(Cl)C(=O)N(Cc3ccccc3)C2=O)c1`: the AC50 under setting [1] was 3.98 µM [falling, partial curve, poor fit]. For the molecule `O=C1CCc2cc(S(=O)(=O)N3CCN(c4ccccc4F)CC3)ccc2N1`, the AC50 under setting [1] is 29.1 µM [falling, single point]. In the case of `CNC(=S)Nc1cccc(S(=O)(=O)NC2=NCCC2)c1`, under setting [1], the AC50 is 20 µM [falling, single point]. Still for that read-out and setting: with `c1ccc(-c2nnc(CN3CCN(c4ccccc4)CC3)o2)cc1` the figure was 35.5 µM [rising, single point]; with `O=C(Nc1nccs1)c1ncc(Cl)c(Cl)c1Cl`, 8.91 µM [falling, partial curve, poor fit]. Take `C[C@@H](NC(=O)c1nc[nH]c1C(=O)N1CCN(c2ccccc2)CC1)c1ccccc1`: the AC50 under setting [1] is 0.82 µM [rising, full curve, poor fit]. Consider `Cn1c(Oc2ccccc2NCc2cc(Br)ccc2O)cc(=O)n(C)c1=O`, for which the AC50 under setting [1] is 29.1 µM [rising, single point].

Take `COc1cc(C(=O)NNC(=O)/C=C/c2ccccc2)cc(OC)c1OC`: the AC50 under setting [1] is 14.6 µM [rising, single point]. Still for that read-out and setting: with `O=C(OCC(=O)N1CCCC1)c1ccc(OC(F)(F)F)cc1` the figure was 35.5 µM [rising, partial curve, poor fit]; with `CC(=O)Nc1ccc(S(=O)(=O)N(C)c2ccc(OCC(=O)OCC(=O)N3CCCCC3)cc2)cc1`, 25.1 µM [falling, single point]; with `CCOC(=O)c1cc2sc(C)cc2n1CC(=O)N(CC)CC`, 6.31 µM [falling, single point]. `Cc1c(OC(C)C(=O)NCCCN2CCOCC2)ccc2c3c(c(=O)oc12)CCC3` (configuration not stated): under setting [1], the AC50 is 12.6 µM [rising, partial curve, poor fit]. Take `C=CCn1c(SCc2cc(=O)n3cc(C)ccc3n2)nnc1-c1ccc(F)cc1`: the AC50 under setting [1] was 7.31 µM [rising, single point]. The same measure, in the same setting: the result for `COCCOC(=O)C1=C(C)NC2=C(C(=O)CC(c3cccs3)C2)C1c1ccsc1` (configuration not stated) reads 11.2 µM [falling, partial curve, poor fit].
